According to patent US9517222B2, “Method for the treatment of senile dementia of the Alzheimer's type” (Phenomenome Discoveries Inc., priority 2007, dated 2016):
Where no unit stands, none is given here, and values compare only within one read-out.

What was measured:
[1] = Serum ethanolamine phospholipid levels in human cohorts (dementia severity, post-mortem pathology, age) by flow-injection MS/MS
[2] = Serum ethanolamine phospholipid ratios to PtdEt 16:0/18:0 (M01) in human cohorts
[3] = serum, females, post mortem SDAT
[4] = serum, females, post mortem control

CCCCCC=CCC=CCC=CCC=CCCCCCC(=O)OC(COC=CCCCCCCCCCCCCCCCC)COP(=O)(O)OCCN (centres unmarked) [Metabolite M23, Plasmenyl 18:0/22:4]
Ratio of serum levels ([1]; AD, All to CN, Male): 0.801
Ratio of serum levels ([1]; ADAS 5-19 to CN, Male): 0.857
Ratio of serum levels ([1]; ADAS 20-39 to 5-19, Male): 0.906
Ratio of serum levels ([1]; ADAS 20-39 to CN, Male): 0.776
Ratio of serum levels ([1]; ADAS 40-70 to 5-19, Male): 0.844
Ratio of serum levels ([1]; ADAS 40-70 to 20-39, Male): 0.931
Ratio of serum levels ([1]; ADAS 40-70 to CN, Male): 0.723
Serum level, Mean ([1]; Cognitive Normal, Female): 0.018
Average serum level, Mean ([1]; Cognitive Normal, Male): 0.018
Serum level, Mean ([1]; Post Mortem Ctl, Male): 0.009
Serum level, Mean ([1]; Post Mortem SDAT Male): 0.005
Ratio of serum levels ([1]; Post mortem SDAT vs Control, Male): 0.565
Serum level, Mean ([1]; SDAT, ADAS 5-19, Female): 0.015
Average serum level, Mean ([1]; SDAT, ADAS 5-19, Male): 0.016
Serum level, Mean ([1]; SDAT, ADAS 20-39, Female): 0.014
Average serum level, Mean ([1]; SDAT, ADAS 20-39, Male): 0.014
Serum level, Mean ([1]; SDAT, ADAS 40-70, Female): 0.013
Average serum level, Mean ([1]; SDAT, ADAS 40-70, Male): 0.013
Serum level, Mean ([1]; SDAT_all, Female): 0.014
Average serum level, Mean ([1]; SDAT_all, Male): 0.015
Ratio, ADAS 5-19 to CN, Female ([1]; serum level ratio, females, ADAS 5-19 vs CN): 0.809
Ratio, ADAS 20-39 to 5-19, Female ([1]; serum level ratio, females, ADAS 20-39 vs ADAS 5-19): 0.975
Ratio, ADAS 20-39 to CN, Female ([1]; serum level ratio, females, ADAS 20-39 vs CN): 0.789
Ratio, ADAS 40-70 to 5-19, Female ([1]; serum level ratio, females, ADAS 40-70 vs ADAS 5-19): 0.864
Ratio, ADAS 40-70 to 20-39, Female ([1]; serum level ratio, females, ADAS 40-70 vs ADAS 20-39): 0.886
Ratio, ADAS 40-70 to CN, Female ([1]; serum level ratio, females, ADAS 40-70 vs CN): 0.699
Ratio, 50-59 vs. 40-49, Female ([1]; serum level ratio, females, age 50-59 vs 40-49): 0.797
Ratio, 60-69 vs. 40-49, Female ([1]; serum level ratio, females, age 60-69 vs 40-49): 0.663
Ratio, 70+ vs. 40-49, Female ([1]; serum level ratio, females, age 70+ vs 40-49): 0.776
Ratio, AD, All to CN, Female ([1]; serum level ratio, females, all AD vs cognitively normal): 0.764
Ratio, Autopsy AD vs. Control, Female ([1]; serum level ratio, females, autopsy AD vs control): 0.560
Ratio, 50-59 vs. 40-49, Male ([1]; serum level ratio, males, age 50-59 vs 40-49): 1.008
Ratio, 60-69 vs. 40-49, Male ([1]; serum level ratio, males, age 60-69 vs 40-49): 1.066
Ratio, 70+ vs. 40-49, Male ([1]; serum level ratio, males, age 70+ vs 40-49): 0.900
Mean serum level, Age Ctl, 30-39, Female ([1]; serum, females, age 30-39): 0.021
Mean serum level, Age Ctl, 40-49, Female ([1]; serum, females, age 40-49): 0.022
Mean serum level, Age Ctl, 50-59, Female ([1]; serum, females, age 50-59): 0.017
Mean serum level, Age Ctl, 60-69, Female ([1]; serum, females, age 60-69): 0.015
Mean serum level, Age Ctl, 70+, Female ([1]; serum, females, age 70+): 0.017
Mean serum level, Post Mortem SDAT, Female [1, 3]: 0.007
Mean serum level, Post Mortem Ctl, Female [1, 4]: 0.012
Mean serum level, Age Ctl, 30-39, Male ([1]; serum, males, age 30-39): 0.022
Mean serum level, Age Ctl, 40-49, Male ([1]; serum, males, age 40-49): 0.019
Mean serum level, Age Ctl, 50-59, Male ([1]; serum, males, age 50-59): 0.019
Mean serum level, Age Ctl, 60-69, Male ([1]; serum, males, age 60-69): 0.020
Mean serum level, Age Ctl, 70+, Male ([1]; serum, males, age 70+): 0.017
Ratio of ethanolamine phospholipid ratios to M01 between cohorts ([2]; AD, All to CN, Male): 0.763
Ratio of ethanolamine phospholipid ratios to M01 between cohorts ([2]; ADAS 5-19 to CN, Male): 0.810
Ratio of ethanolamine phospholipid ratios to M01 between cohorts ([2]; ADAS 20-39 to CN, Male): 0.754
Ratio of ethanolamine phospholipid ratios to M01 between cohorts ([2]; ADAS 40-70 to CN, Male): 0.696
Average serum ethanolamine phospholipid ratio to M01, Mean ([2]; Cognitive Normal, Male, serum): 0.164
Average serum ethanolamine phospholipid ratio to M01, Mean ([2]; SDAT, ADAS 5-19, Male, serum): 0.133
Average serum ethanolamine phospholipid ratio to M01, Mean ([2]; SDAT, ADAS 20-39, Male, serum): 0.124
Average serum ethanolamine phospholipid ratio to M01, Mean ([2]; SDAT, ADAS 40-70, Male, serum): 0.114
Average serum ethanolamine phospholipid ratio to M01, Mean ([2]; SDAT_all, Male, serum): 0.125
Ethanolamine Phospholipid Ratio to M01, Mean, Age Ctl, 30-39, Female ([2]; human serum, females aged 30-39): 0.198
Ethanolamine Phospholipid Ratio to M01, Mean, Age Ctl, 40-49, Female ([2]; human serum, females aged 40-49): 0.202
Ethanolamine Phospholipid Ratio to M01, Mean, Age Ctl, 50-59, Female ([2]; human serum, females aged 50-59): 0.177
Ratio of Ethanolamine Phospholipid Ratio to M01, 50-59 vs. 40-49, Female ([2]; human serum, females aged 50-59 vs. females aged 40-49): 0.876
Ethanolamine Phospholipid Ratio to M01, Mean, Age Ctl, 60-69, Female ([2]; human serum, females aged 60-69): 0.124
Ratio of Ethanolamine Phospholipid Ratio to M01, 60-69 vs. 40-49, Female ([2]; human serum, females aged 60-69 vs. females aged 40-49): 0.614
Ethanolamine Phospholipid Ratio to M01, Mean, Age Ctl, 70+_Female ([2]; human serum, females aged 70+): 0.140
Ratio of Ethanolamine Phospholipid Ratio to M01, 70+ vs. 40-49, Female ([2]; human serum, females aged 70+ vs. females aged 40-49): 0.696
Ratio of Ethanolamine Phospholipid Ratio to M01, 50-59 vs. 40-49, Male ([2]; human serum, males aged 50-59 vs. males aged 40-49): 1.016
Ratio of Ethanolamine Phospholipid Ratio to M01, 60-69 vs. 40-49, Male ([2]; human serum, males aged 60-69 vs. males aged 40-49): 0.858
Ratio of Ethanolamine Phospholipid Ratio to M01, 70+ vs. 40-49, Male ([2]; human serum, males aged 70+ vs. males aged 40-49): 0.759
Ratio of ethanolamine phospholipid ratio to M01, ADAS 5-19 to CN, Female ([2]; serum, females, ADAS 5-19 vs cognitive normal): 0.877
Ratio of ethanolamine phospholipid ratio to M01, ADAS 20-39 to 5-19, Female ([2]; serum, females, ADAS 20-39 vs ADAS 5-19): 0.948
Ratio of ethanolamine phospholipid ratio to M01, ADAS 20-39 to CN, Female ([2]; serum, females, ADAS 20-39 vs cognitive normal): 0.831
Ratio of ethanolamine phospholipid ratio to M01, ADAS 40-70 to 5-19, Female ([2]; serum, females, ADAS 40-70 vs ADAS 5-19): 0.806
Ratio of ethanolamine phospholipid ratio to M01, ADAS 40-70 to 20-39, Female ([2]; serum, females, ADAS 40-70 vs ADAS 20-39): 0.851
Ratio of ethanolamine phospholipid ratio to M01, ADAS 40-70 to CN, Female ([2]; serum, females, ADAS 40-70 vs cognitive normal): 0.707
Ethanolamine phospholipid ratio to M01, Mean, SDAT, ADAS 5-19, Female ([2]; serum, females, SDAT ADAS 5-19): 0.139
Ethanolamine phospholipid ratio to M01, Mean, SDAT, ADAS 20-39, Female ([2]; serum, females, SDAT ADAS 20-39): 0.131
Ethanolamine phospholipid ratio to M01, Mean, SDAT, ADAS 40-70, Female ([2]; serum, females, SDAT ADAS 40-70): 0.112
Ratio of ethanolamine phospholipid ratio to M01, AD, All to CN, Female ([2]; serum, females, all AD vs cognitive normal): 0.801
Ethanolamine phospholipid ratio to M01, Mean, SDAT_all Female ([2]; serum, females, all SDAT): 0.127
Ratio of ethanolamine phospholipid ratio to M01, Autopsy AD vs. Control, Female ([2]; serum, females, autopsy AD vs post mortem control): 0.816
Ethanolamine phospholipid ratio to M01, Mean, Cognitive Normal, Female ([2]; serum, females, cognitive normal): 0.158
Ethanolamine phospholipid ratio to M01, Mean, Post Mortem SDAT Female [2, 3]: 0.060
Ethanolamine phospholipid ratio to M01, Mean, Post Mortem Ctl, Female [2, 4]: 0.073
Ratio of ethanolamine phospholipid ratio to M01, ADAS 20-39 to 5-19, Male ([2]; serum, males, SDAT ADAS 20-39 vs ADAS 5-19): 0.931
Ratio of ethanolamine phospholipid ratio to M01, ADAS 40-70 to 5-19, Male ([2]; serum, males, SDAT ADAS 40-70 vs ADAS 5-19): 0.860
Ratio of ethanolamine phospholipid ratio to M01, ADAS 40-70 to 20-39, Male ([2]; serum, males, SDAT ADAS 40-70 vs ADAS 20-39): 0.923
Ethanolamine phospholipid ratio to M01, Mean, Age Ctl, 30-39, Male ([2]; serum, males, age control 30-39): 0.189
Ethanolamine phospholipid ratio to M01, Mean, Age Ctl, 40-49, Male ([2]; serum, males, age control 40-49): 0.175
Ethanolamine phospholipid ratio to M01, Mean, Age Ctl, 50-59, Male ([2]; serum, males, age control 50-59): 0.178
Ethanolamine phospholipid ratio to M01, Mean, Age Ctl, 60-69, Male ([2]; serum, males, age control 60-69): 0.150
Ethanolamine phospholipid ratio to M01, Mean, Age Ctl, 70+_Male ([2]; serum, males, age control 70+): 0.133
Ethanolamine phospholipid ratio to M01, Mean, Post Mortem SDAT Male ([2]; serum, males, post mortem SDAT): 0.055
Ratio of ethanolamine phospholipid ratio to M01, SDAT vs Control (post mortem, males) ([2]; serum, males, post mortem SDAT vs post mortem control): 0.750
Ethanolamine phospholipid ratio to M01, Mean, Post Mortem Ctl, Male ([2]; serum, males, post mortem control): 0.074
